# Assay results published in publication PMC10320715.
# No constants are given. Whether binding was seen depends on the method and setting. In cells and extracts the contact can be indirect. Where a sequence is shown, tags or fusion partners need not be part of it.
# T1: mCherry-fused IFT54(1–532) (human) (UniProt Q8TDR0)
# T1 sequence: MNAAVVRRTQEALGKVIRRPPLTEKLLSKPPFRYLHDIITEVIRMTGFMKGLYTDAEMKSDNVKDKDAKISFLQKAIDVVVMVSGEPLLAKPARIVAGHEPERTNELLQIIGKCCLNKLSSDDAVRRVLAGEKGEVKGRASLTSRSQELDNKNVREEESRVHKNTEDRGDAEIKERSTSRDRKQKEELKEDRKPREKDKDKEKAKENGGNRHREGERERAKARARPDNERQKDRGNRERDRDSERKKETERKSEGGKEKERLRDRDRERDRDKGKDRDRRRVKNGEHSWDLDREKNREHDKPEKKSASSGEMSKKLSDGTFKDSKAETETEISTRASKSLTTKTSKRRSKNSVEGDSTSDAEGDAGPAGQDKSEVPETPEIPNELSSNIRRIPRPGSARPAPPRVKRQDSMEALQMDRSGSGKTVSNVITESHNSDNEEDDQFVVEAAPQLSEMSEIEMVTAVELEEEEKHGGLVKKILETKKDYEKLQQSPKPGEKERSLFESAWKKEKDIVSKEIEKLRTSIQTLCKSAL
# Biological target: T1, mCherry-fused IFT54(1–532) (human)
# Experiment: co-IP; lysates of IFT54-KO RPE1 cells stably expressing mCherry-fused IFT54 constructs; precipitated with GST-tagged anti-mCherry Nb (LaM-2 version) prebound to glutathione-Sepharose 4B beads; lysis buffer 20 mM HEPES-KOH pH 7.4, 3 mM MgCl2, 1 mM dithiothreitol, 100 mM KCl, 10% glycerol, 5 mM NaCl, 0.1% Triton X-100; beads washed five times; immunoblotting for endogenous IFT88, IFT81, IFT52, IFT25
row,Binder,binding
1,"IFT25 (protein, UniProt Q9Y547 1-144) MRKIDLCLSSEGSEVILATSSDEKHPPENIIDGNPETFWTTTGMFPQEFIICFHKHVRIERLVIQSYFVQTLKIEKSTSKEPVDFEQWIEKDLVHTEGQLQNEEIVAHDGSATYLRFIIVSAFDHFASVHSVSAEGTVVSNLSS",no binding
2,"IFT52 (protein, UniProt Q9Y366 1-437) MEKELRSTILFNAYKKEIFTTNNGYKSMQKKLRSNWKIQSLKDEITSEKLNGVKLWITAGPREKFTAAEFEILKKYLDTGGDVFVMLGEGGESRFDTNINFLLEEYGIMVNNDAVVRNVYHKYFHPKEALVSSGVLNREISRAAGKAVPGIIDEESSGNNAQALTFVYPFGATLSVMKPAVAVLSTGSVCFPLNRPILAFYHSKNQGGKLAVLGSCHMFSDQYLDKEENSKIMDVVFQWLTTGDIHLNQIDAEDPEISDYMMLPYTATLSKRNRECLQESDEIPRDFTTLFDLSIFQLDTTSFHSVIEAHEQLNVKHEPLQLIQPQFETPLPTLQPAVFPPSFRELPPPPLELFDLDETFSSEKARLAQITNKCTEEDLEFYVRKCGDILGVTSKLPKDQQDAKHILEHVFFQVVEFKKLNQEHDIDTSETAFQNNF",no binding

# Results, then the binder that gave them:
row,binding,Binder
1,no binding,"IFT81 (protein, UniProt Q8WYA0 1-676) MSDQIKFIMDSLNKEPFRKNYNLITFDSLEPMQLLQVLSDVLAEIDPKQLVDIREEMPEQTAKRMLSLLGILKYKPSGNATDMSTFRQGLVIGSKPVIYPVLHWLLQRTNELKKRAYLARFLIKLEVPSEFLQDETVADTNKQYEELMEAFKTLHKEYEQLKISGFSTAEIRKDISAMEEEKDQLIKRVEHLKKRVETAQNHQWMLKIARQLRVEKEREEYLAQQKQEQKNQLFHAVQRLQRVQNQLKSMRQAAADAKPESLMKRLEEEIKFNLYMVTEKFPKELENKKKELHFLQKVVSEPAMGHSDLLELESKINEINTEINQLIEKKMMRNEPIEGKLSLYRQQASIISRKKEAKAEELQEAKEKLASLEREASVKRNQTREFDGTEVLKGDEFKRYVNKLRSKSTVFKKKHQIIAELKAEFGLLQRTEELLKQRHENIQQQLQTMEEKKGISGYSYTQEELERVSALKSEVDEMKGRTLDDMSEMVKKLYSLVSEKKSALASVIKELRQLRQKYQELTQECDEKKSQYDSCAAGLESNRSKLEQEVRRLREECLQEESRYHYTNCMIKNLEVQLRRATDEMKAYISSDQQEKRKAIREQYTKNTAEQENLGKKLREKQKVIRESHGPNMKQAKMWRDLEQLMECKKQCFLKQQSQTSIGQVIQEGGEDRLIL"
2,no binding,"IFT88 (protein, UniProt Q13099 1-824) MMQNVHLAPETDEDDLYSGYNDYNPIYDIEELENDAAFQQAVRTSHGRRPPITAKISSTAVTRPIATGYGSKTSLASSIGRPMTGAIQDGVTRPMTAVRAAGFTKAALRGSAFDPLSQSRGPASPLEAKKKDSPEEKIKQLEKEVNELVEESCIANSCGDLKLALEKAKDAGRKERVLVRQREQVTTPENINLDLTYSVLFNLASQYSVNEMYAEALNTYQVIVKNKMFSNAGILKMNMGNIYLKQRNYSKAIKFYRMALDQVPSVNKQMRIKIMQNIGVTFIQAGQYSDAINSYEHIMSMAPNLKAGYNLTICYFAIGDREKMKKAFQKLITVPLEIDEDKYISPSDDPHTNLVTEAIKNDHLRQMERERKAMAEKYIMTSAKLIAPVIETSFAAGYDWCVEVVKASQYVELANDLEINKAVTYLRQKDYNQAVEILKVLEKKDSRVKSAAATNLSALYYMGKDFAQASSYADIAVNSDRYNPAALTNKGNTVFANGDYEKAAEFYKEALRNDSSCTEALYNIGLTYEKLNRLDEALDCFLKLHAILRNSAEVLYQIANIYELMENPSQAIEWLMQVVSVIPTDPQVLSKLGELYDREGDKSQAFQYYYESYRYFPCNIEVIEWLGAYYIDTQFWEKAIQYFERASLIQPTQVKWQLMVASCFRRSGNYQKALDTYKDTHRKFPENVECLRFLVRLCTDLGLKDAQEYARKLKRLEKMKEIREQRIKSGRDGSGGSRGKREGSASGDSGQNYSASSKGERLSARLRALPGTNEPYESSSNKEIDASYVDPLGPQIERPKTAAKKRIDEDDFADEELGDDLLPE"
